Sequences and labels used below:
T1: ATF4 bZIP TAP construct (mouse) (UniProt Q06507)
T1 sequence: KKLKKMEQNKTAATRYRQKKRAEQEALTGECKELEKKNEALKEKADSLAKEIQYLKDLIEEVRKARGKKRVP

B1: leucine zipper protein 1 (LUZP1) (protein, UniProt Q8R4U7 1-1068)
chain: MAELTNYKDAASNRHLRFKLQSLSRRLDELEEATKNLQRAEDELLDLQDKVIQAEGSDSSTLAEIEVLRQRVLKIEGKDEEIKRAEDLCHTMKEKLEEEENLTRELKSEIERLQKRMVDLEKLEEALSRSKNECSQLCLSLNEERNLTKKISSELEMLRVKVKELESSEDRLDKTEQSLVSELEKLKSLTLSFVNERKYLNEKEKENEKIIKELTQKLEQNKKMNRDHMRNASTFLERNDLRIEDGISSTLSSKESKRKGSLDYLKQVENETRDKSENEKNRNQEDNKVKDLNQEIEKLKTQIKHFESLEEELKKMRAKNNDLQDNYLTELNRNRSLASQLEEIKLQVRKQKELGNGDIEGEDAFLLGRGRHERTKLKGHGSEASVSKHTSRELSPQHKRERLRNREFALSNEHYSLSSKQASSPVFTNKRAAKASNMGMGTDSGTQETKRTEDRFAPGSSHSEGKRGREQPSVLSRYPPAAQEHTKVWKGAPKPGTESGLKGKVEKTTRTFSDSTHVSVPNDIVGKGDKTSDLSSEAHCGKRGQVPGHASQGTQAVESSCSKAIGALSSSQKASSEGLSKGKKTANGLAADANFSNSKAPILSKYPYSSRSQENILQGFSLPNKEGVDQPVAVVMEDSSQHEALRCRVIKSSGREKPDSDDDLDIESFVTAKLVNTTITPEPEPKPQPNSREKVKSRGGTRTALFENDKNAAIENDSVKPTRPSSNAIEFPDANCAGVKNQRPFSPREALRSRAIIKPVIIDKDVKKIMGGSGTEVVLEKQKSTSKSVTSKVTSSITIYPSDSSGPRAVPSEAPRERHTSTSNIQVGPPELTAISNHVSSPLELSIHKHDITLQLTEAERVGDGSPKNRAEMVVSRSSILIKPSESVEKNSHVPPAETIRWKSHSASSDSRHITVRNAWKSKRDLKCSEDPPTGIGRNMEATNAYTQRPCTDFLELEQPRSQPSEQGARRVGNSGDAPELSPRRTQSSLTASEVLTRRDRMGGAITAASCNHSSSMEEGEDSTFVTSRRIHNPLEHSELPGKQGLPEPEPVWTEERLHPAKPYAEED
B2: C/EBPδ (protein, UniProt Q00322 1-268)
chain: MSAALFSLDSPVRGTPWPTEPAAFYEPGRVDKPGRGPEPGDLGELGSTTPAMYDDESAIDFSAYIDSMAAVPTLELCHDELFADLFNSNHKAAGAGGLELLQGGPTRPPGVGSVARGPLKREPDWGDGDAPGSLLPAQVAVCAQTVVSLAAAAQPTPPTSPEPPRGSPGPSLAPGTVREKGAGKRGPDRGSPEYRQRRERNNIAVRKSRDKAKRRNQEMQQKLVELSAENEKLHQRVEQLTRDLAGLRQFFKKLPSPPFLPPTGADCR

These are yes or no findings as the source states them, for the method shown. In cells and extracts the contact can be indirect. Some binding calls cover weakened binding; strength is not graded here.

The target in the test is T1, ATF4 bZIP TAP construct (mouse). As to the kind of experiment: co-IP; one-step pulldown with anti-FLAG magnetic beads from pooled extracts of mouse TA muscles (12 mice) expressing the ATF4 bZIP TAP construct or the empty TAP construct, SDS-PAGE and immunoblot of endogenous proteins. Background: A western blot detects proteins with antibodies after separation by electrophoresis.
For the molecule MAF/c-Maf (from UniProt P54843-1 1-370), the binding result is given as “binds”.

With B1, the binding entry is recorded as “binds”.

B2: the binding result is recorded as “binds”.

The values are drawn from PMC7049960.
